The values below come from paper PMC3694632.

Protein sequences, listed by entry. Tags and fused reporters are not part of them. Lines headed by an entry give the natural chain unless they say otherwise; changes in a name come on top. Residues count along the entry.
UniProt Q51480: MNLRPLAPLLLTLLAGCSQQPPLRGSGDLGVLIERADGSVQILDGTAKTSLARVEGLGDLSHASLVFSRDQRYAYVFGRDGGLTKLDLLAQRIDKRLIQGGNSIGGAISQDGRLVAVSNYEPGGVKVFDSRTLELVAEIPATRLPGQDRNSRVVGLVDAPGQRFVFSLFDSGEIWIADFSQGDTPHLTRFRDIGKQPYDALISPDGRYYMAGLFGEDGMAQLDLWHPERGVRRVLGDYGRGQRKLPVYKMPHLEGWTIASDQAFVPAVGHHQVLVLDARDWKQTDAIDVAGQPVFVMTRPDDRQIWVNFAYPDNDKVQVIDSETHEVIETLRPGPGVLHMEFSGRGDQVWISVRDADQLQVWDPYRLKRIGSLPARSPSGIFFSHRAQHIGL
UniProt P24474, residues 26-568: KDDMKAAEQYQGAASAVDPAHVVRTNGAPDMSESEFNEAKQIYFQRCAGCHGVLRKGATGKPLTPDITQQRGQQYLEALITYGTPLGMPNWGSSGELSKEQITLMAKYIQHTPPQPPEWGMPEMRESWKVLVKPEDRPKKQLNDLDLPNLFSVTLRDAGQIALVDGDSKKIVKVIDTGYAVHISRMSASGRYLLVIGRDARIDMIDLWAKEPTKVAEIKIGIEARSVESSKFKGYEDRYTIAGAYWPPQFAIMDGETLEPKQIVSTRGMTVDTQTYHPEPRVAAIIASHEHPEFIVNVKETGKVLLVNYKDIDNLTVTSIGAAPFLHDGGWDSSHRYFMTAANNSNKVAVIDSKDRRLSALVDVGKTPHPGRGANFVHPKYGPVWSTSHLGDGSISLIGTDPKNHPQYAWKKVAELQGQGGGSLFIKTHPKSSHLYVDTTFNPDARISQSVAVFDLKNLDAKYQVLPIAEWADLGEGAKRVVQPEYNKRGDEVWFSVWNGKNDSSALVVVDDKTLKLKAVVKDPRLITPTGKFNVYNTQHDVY

The assay deals with STrEP-tagged (C-terminal) NirF (P. aeruginosa PAO1) (UniProt Q51480). Nature of the assay: pull-down; affinity co-purification on Strep-Tactin resin from cell-free extract of P. aeruginosa PAO1 RM301 producing NirF-OneSTrEP, after in vivo cross-linking with formaldehyde; NirS detected by Western blot.

No constants are given. Whether binding was seen depends on the method and setting. Binding seen in cells or lysates may run through a third protein. Binding calls can cover weak binding; strength is not graded here.

Turning to “cytochrome cd1 nitrite reductase NirS (from UniProt P24474 26-568) (enzyme)”, the binding entry is recorded as “binds”.
